# Publication PMC8384837
# Some of the results follow. At the low end of the ranking, values are background and their order means little.
# Molecular target: T1, PUM1 PUF domain R3-THE R4-TFR C935T + R936H + Q939E + N971T + H972F + Q975R (UniProt Q14671)
# T1 sequence: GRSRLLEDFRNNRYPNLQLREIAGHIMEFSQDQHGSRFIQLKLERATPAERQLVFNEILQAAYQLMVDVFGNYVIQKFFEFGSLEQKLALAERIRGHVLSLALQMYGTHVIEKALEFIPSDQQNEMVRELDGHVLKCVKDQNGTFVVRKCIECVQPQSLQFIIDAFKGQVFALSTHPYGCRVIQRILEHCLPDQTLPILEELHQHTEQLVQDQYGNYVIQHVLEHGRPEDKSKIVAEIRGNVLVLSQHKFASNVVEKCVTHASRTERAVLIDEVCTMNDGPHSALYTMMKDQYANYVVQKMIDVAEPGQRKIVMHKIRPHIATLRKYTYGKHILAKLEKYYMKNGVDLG
# Details: yeast three-hybrid, YBZ-1, SC-Leu-His + 0.5 mM 3-AT, 4 days
row,Sequence,binding signal (log2 enrichment (interaction score))
1,GGCUAGAACUAGUGGAUCCCCCGGCGCCCGGCGGCUCGAGCCCGGGUAAGUUAACCAAGUCUGCAUGCCGCCGGGCGCCAUGCCUGCAGGUCGACUCUAGAAAACAUG,-6.39
2,GGCUAGAACUAGUGGAUCCCCCGGCGCCCGGCGGCUCGAGCCCGGGUAAGUUUCAGGAGUCUGCAUGCCGCCGGGCGCCAUGCCUGCAGGUCGACUCUAGAAAACAUG,-8.11
3,GGCUAGAACUAGUGGAUCCCCCGGCGCCCGGCGGCUCGAGCCCGGGUAAGUCCACAGCGUCUGCAUGCCGCCGGGCGCCAUGCCUGCAGGUCGACUCUAGAAAACAUG,-6.71
4,GGCUAGAACUAGUGGAUCCCCCGGCGCCCGGCGGCUCGAGCCCGGGUAAGAGUGGAAAGUCUGCAUGCCGCCGGGCGCCAUGCCUGCAGGUCGACUCUAGAAAACAUG,< -7.34
5,GGCUAGAACUAGUGGAUCCCCCGGCGCCCGGCGGCUCGAGCCCGGGUAAGCUAAAGAAGUCUGCAUGCCGCCGGGCGCCAUGCCUGCAGGUCGACUCUAGAAAACAUG,-7.53
6,GGCUAGAACUAGUGGAUCCCCCGGCGCCCGGCGGCUCGAGCCCGGGUAAGUCUGCAAAGUCUGCAUGCCGCCGGGCGCCAUGCCUGCAGGUCGACUCUAGAAAACAUG,< -6.93
7,GGCUAGAACUAGUGGAUCCCCCGGCGCCCGGCGGCUCGAGCCCGGGUAAGGGGAAAUAGUCUGCAUGCCGCCGGGCGCCAUGCCUGCAGGUCGACUCUAGAAAACAUG,-7.78
8,GGCUAGAACUAGUGGAUCCCCCGGCGCCCGGCGGCUCGAGCCCGGGUAAGUUUAAGGCGUCUGCAUGCCGCCGGGCGCCAUGCCUGCAGGUCGACUCUAGAAAACAUG,< -5.77
9,GGCUAGAACUAGUGGAUCCCCCGGCGCCCGGCGGCUCGAGCCCGGGUAAGGGGCAGUCGUCUGCAUGCCGCCGGGCGCCAUGCCUGCAGGUCGACUCUAGAAAACAUG,-7.11
10,GGCUAGAACUAGUGGAUCCCCCGGCGCCCGGCGGCUCGAGCCCGGGUAAGUUGACGUUGUCUGCAUGCCGCCGGGCGCCAUGCCUGCAGGUCGACUCUAGAAAACAUG,< -7.45
11,GGCUAGAACUAGUGGAUCCCCCGGCGCCCGGCGGCUCGAGCCCGGGUAAGUUCGCGAAGUCUGCAUGCCGCCGGGCGCCAUGCCUGCAGGUCGACUCUAGAAAACAUG,-8.33
12,GGCUAGAACUAGUGGAUCCCCCGGCGCCCGGCGGCUCGAGCCCGGGUAAGCGAUAGAAGUCUGCAUGCCGCCGGGCGCCAUGCCUGCAGGUCGACUCUAGAAAACAUG,-7.5
13,GGCUAGAACUAGUGGAUCCCCCGGCGCCCGGCGGCUCGAGCCCGGGUAAGGGAACAUCGUCUGCAUGCCGCCGGGCGCCAUGCCUGCAGGUCGACUCUAGAAAACAUG,< -6.06
14,GGCUAGAACUAGUGGAUCCCCCGGCGCCCGGCGGCUCGAGCCCGGGUAAGUCCAAGACGUCUGCAUGCCGCCGGGCGCCAUGCCUGCAGGUCGACUCUAGAAAACAUG,-7.11
15,GGCUAGAACUAGUGGAUCCCCCGGCGCCCGGCGGCUCGAGCCCGGGUAAGAUUACGAAGUCUGCAUGCCGCCGGGCGCCAUGCCUGCAGGUCGACUCUAGAAAACAUG,-5.12
16,GGCUAGAACUAGUGGAUCCCCCGGCGCCCGGCGGCUCGAGCCCGGGUAAGCAUCCGGCGUCUGCAUGCCGCCGGGCGCCAUGCCUGCAGGUCGACUCUAGAAAACAUG,< -7.08
17,GGCUAGAACUAGUGGAUCCCCCGGCGCCCGGCGGCUCGAGCCCGGGUAAGCUCGGGUAGUCUGCAUGCCGCCGGGCGCCAUGCCUGCAGGUCGACUCUAGAAAACAUG,-6.13
